Data reported in US20150132305A1.
No constants are given. Whether binding was seen depends on the method and setting. Some binding calls cover weakened binding; strength is not graded here. For some assays here: Where a sequence is shown, tags or fusion partners need not be part of it.

What was measured:
[1] = biological target: T1, recombinant Cad-11 EC1 human IgG1 fusion protein (R&D Systems Cat. No. 1790-CA-050) (human) (UniProt P55287); assay: competition ELISA
T1 sequence: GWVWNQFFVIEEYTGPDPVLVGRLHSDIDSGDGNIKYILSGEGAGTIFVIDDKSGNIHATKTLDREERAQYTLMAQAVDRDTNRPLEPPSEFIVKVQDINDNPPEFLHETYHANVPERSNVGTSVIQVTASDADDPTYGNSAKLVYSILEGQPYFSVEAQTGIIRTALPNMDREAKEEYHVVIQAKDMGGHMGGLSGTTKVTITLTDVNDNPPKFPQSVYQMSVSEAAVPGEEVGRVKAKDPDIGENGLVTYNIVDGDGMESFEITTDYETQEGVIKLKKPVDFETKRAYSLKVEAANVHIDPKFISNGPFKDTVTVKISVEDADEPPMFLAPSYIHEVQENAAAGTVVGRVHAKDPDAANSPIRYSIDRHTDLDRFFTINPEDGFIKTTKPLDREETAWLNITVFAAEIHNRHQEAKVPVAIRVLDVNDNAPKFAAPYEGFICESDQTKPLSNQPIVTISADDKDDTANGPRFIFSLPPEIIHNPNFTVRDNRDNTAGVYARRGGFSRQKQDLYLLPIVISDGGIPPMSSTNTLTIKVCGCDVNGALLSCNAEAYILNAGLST

[2] = biological target: T1, recombinant Cad-11 EC1 human IgG1 fusion protein (R&D Systems Cat. No. 1790-CA-050) (human); assay: competition ELISA on coated recombinant human Cad-11 EC1 fusion protein against biotinylated SYN0012 (0.1 µg/ml)
[3] = biological target: T2, recombinant his-tagged human Cad-11 (R&D Systems) (human) (UniProt P55287); assay: SPR, rhCad-11 immobilised on the chip, SDP051 injected for 360 s (12.5 nM to 0.195 nM per paragraph 266; concentrations not printed on the sheet)
T2 sequence: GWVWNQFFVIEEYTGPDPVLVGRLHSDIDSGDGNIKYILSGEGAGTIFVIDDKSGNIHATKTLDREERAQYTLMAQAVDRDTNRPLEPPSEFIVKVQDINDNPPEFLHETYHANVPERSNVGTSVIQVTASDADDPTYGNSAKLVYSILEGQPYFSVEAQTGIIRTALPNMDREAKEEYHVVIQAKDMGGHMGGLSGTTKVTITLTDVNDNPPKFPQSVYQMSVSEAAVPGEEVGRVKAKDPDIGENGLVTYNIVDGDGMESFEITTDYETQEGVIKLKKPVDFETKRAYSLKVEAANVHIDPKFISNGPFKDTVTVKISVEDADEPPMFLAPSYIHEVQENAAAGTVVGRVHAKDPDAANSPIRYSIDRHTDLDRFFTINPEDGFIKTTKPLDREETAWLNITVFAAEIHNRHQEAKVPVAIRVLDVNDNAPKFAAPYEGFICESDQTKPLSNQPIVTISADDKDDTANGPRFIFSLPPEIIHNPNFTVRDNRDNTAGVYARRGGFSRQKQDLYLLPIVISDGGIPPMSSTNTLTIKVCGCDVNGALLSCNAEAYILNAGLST

[4] = biological target: T3, Cad-8 37-mer peptide linked to BSA (UniProt P55286); assay: ELISA, BSA-coupled 37-mer cadherin peptide coated at 500 ng/ml, A450
T3 sequence (peptide, linked to BSA, looked up): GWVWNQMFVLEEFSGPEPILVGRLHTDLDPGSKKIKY

[5] = biological target: T4, Cad-18 37-mer peptide linked to BSA (UniProt Q13634); assay: as above
T4 sequence (peptide, linked to BSA, looked up): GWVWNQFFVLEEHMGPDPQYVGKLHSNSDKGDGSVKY

[6] = biological target: T5, Cad-9 37-mer peptide linked to BSA (UniProt Q9ULB4); assay: as above
T5 sequence (peptide, linked to BSA, looked up): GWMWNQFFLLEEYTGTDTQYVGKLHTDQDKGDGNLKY

[7] = biological target: T6, Cad-7 37-mer peptide linked to BSA (UniProt Q9ULB5); assay: as above
T6 sequence (peptide, linked to BSA, looked up): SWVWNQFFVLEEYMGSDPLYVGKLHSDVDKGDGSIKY

[8] = biological target: T7, Cad-24 37-mer peptide linked to BSA (UniProt Q86UP0); assay: as above
T7 sequence (peptide, linked to BSA, looked up): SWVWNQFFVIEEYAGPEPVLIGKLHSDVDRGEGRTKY

[9] = biological target: T8, Cad-20 37-mer peptide linked to BSA (UniProt Q9HBT6); assay: as above
T8 sequence (peptide, linked to BSA, looked up): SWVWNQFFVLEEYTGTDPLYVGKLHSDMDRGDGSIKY

Measured: binding

B1: SDP051 humanized anti-Cad-11 EC1 antibody (Vκ1/VH5) (antibody, IgG4, V domains shown)
VH: EVQLVQSGAEVKKPGASVKVSCKASGYSFTGYFMNWVRQAPGQGLEWIGRINPYTGDTFYNQKFKGRVTITVDKSTSTAYMELSSLRSEDTAVYYCGRLGSRYWYFDVWGQGTTVTVSS
VL: DVLMTQTPLSSPVTLGQPASISCRSSQSIIHSNGNTYLEWYLQKPGQSPQLLIYKVSNRFSGVPDRFTGSGSGTDFTLKISRVEAEDVGVYYCFQGSHVPWTFGQGTKLEIK
binds: [1] | [2] | [3]

B2: SDP041 humanized anti-Cad-11 EC1 antibody (Vκ1/VH4) (antibody, IgG4, V domains shown)
VH: EVQLVQSGAEVKKPGASVKVSCKASGYSFTGYFMNWVRQAPGQGLEWIGRINPYTGDTFYNQKFKGRATITVDKSTSTAYMELSSLRSEDTAVYYCGRLGSRYWYFDVWGQGTTVTVSS
VL: DVLMTQTPLSSPVTLGQPASISCRSSQSIIHSNGNTYLEWYLQKPGQSPQLLIYKVSNRFSGVPDRFTGSGSGTDFTLKISRVEAEDVGVYYCFQGSHVPWTFGQGTKLEIK
binds: [1] | [2] | [4] | [5] | [6] | [7] | [8] | [9]

B3: SDP021 humanized anti-Cad-11 EC1 antibody (Vκ1/VH2) (antibody, IgG4, V domains shown)
VH: EVQLVQSGAEVKKPGASVKISCKASGYSFTGYFMNWVKQAPGQGLEWIGRINPYTGDTFYNQKFKGRATLTVDKSTSTAYMELSSLRSEDTAVYYCGRLGSRYWYFDVWGQGTTVTVSS
VL: DVLMTQTPLSSPVTLGQPASISCRSSQSIIHSNGNTYLEWYLQKPGQSPQLLIYKVSNRFSGVPDRFTGSGSGTDFTLKISRVEAEDVGVYYCFQGSHVPWTFGQGTKLEIK
binds: [1] | [2] | [4] | [5] | [7] | [8] | [9]

B4: SDP011 humanized anti-Cad-11 EC1 antibody (Vκ1/VH1) (antibody, IgG4, V domains shown)
VH: EVQLVQSGPELKKPGASVKISCKASGYSFTGYFMNWVKQAHGQGLEWIGRINPYTGDTFYNQKFKGRATLTVDKSSSTAYMELVSLSSEDSAVYYCGRLGSRYWYFDVWGQGTTVTVSS
VL: DVLMTQTPLSSPVTLGQPASISCRSSQSIIHSNGNTYLEWYLQKPGQSPQLLIYKVSNRFSGVPDRFTGSGSGTDFTLKISRVEAEDVGVYYCFQGSHVPWTFGQGTKLEIK
binds: [1] | [2] | [4] | [5] | [7] | [8] | [9]

B5: SDP031 humanized anti-Cad-11 EC1 antibody (Vκ1/VH3) (antibody, IgG4, V domains shown)
VH: EVQLVQSGAEVKKPGASVKISCKASGYSFTGYFMNWVRQAPGQGLEWIGRINPYTGDTFYNQKFKGRATLTVDKSTSTAYMELSSLRSEDTAVYYCGRLGSRYWYFDVWGQGTTVTVSS
VL: DVLMTQTPLSSPVTLGQPASISCRSSQSIIHSNGNTYLEWYLQKPGQSPQLLIYKVSNRFSGVPDRFTGSGSGTDFTLKISRVEAEDVGVYYCFQGSHVPWTFGQGTKLEIK
binds: [1] | [2] | [4] | [5] | [7] | [8] | [9]
